{"source": "patent US20080261923A1", "about": "(priority 2004, published 2008)", "key": {"[1]": {"experiment": "general procedure: Fmoc solid-phase peptide synthesis; Rink amide MBHA resin; HBTU/HOBt; HATU/HOAt for the dipeptide isostere building block", "conditions": "whole synthesis, scale 0.10 mmol"}, "[2]": {"experiment": "general procedure: Fmoc solid-phase peptide synthesis; Rink amide MBHA resin (0.64 mmol/g); HBTU/HOBt; HATU/HOAt for the dipeptide isostere building block", "conditions": "whole synthesis"}}}
{"substance": "Ac-Phe-Tyr-pSerΨ[(Z)CH═C]-Pro-Arg-NH2", "values": [{"measurement": "crude mass", "setting": "[1]", "value": 80, "unit": "mg"}, {"measurement": "isolated mass", "setting": "[2]", "value": 20, "unit": "mg"}, {"measurement": "isolated yield", "setting": "[2]; scale of the general procedure 0.10 mmol", "value": 72, "unit": "%"}]}
